The other results are listed elsewhere or left out.
Columns and labels:
Assay in all cases: log2 fold change, soluble protein after heating vs DMSO (PISA); higher = thermal stabilisation; K562 lysate, 10 uM; active = over 0.2 and 3.5 SD of the protein, either way, in both replicates (recomputed)
vemurafenib = compound: CCCS(=O)(=O)Nc1ccc(F)c(C(=O)c2c[nH]c3ncc(-c4ccc(Cl)cc4)cc23)c1F [vemurafenib]
Procedure, shortened: (§1)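 The values are log-two fold changes in thermal stability compared with solvent controls and come from duplicates. They were obtained by TMTpro 16plex LC-MS/MS, with channel sums equalised, on the supernatant after 21,000xg for 90 min. That supernatant came from crude K562 extract at 1 mg/mL protein treated with 10 μM compound for 30 min, heated for 3 min across 48°C-58°C, pooled and brought to 0.5% NP-40 at 4°C.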

The chains behind the UniProt entries cited, without tags or fusion partners. Where a name states a change or a piece, a line headed by the entry shows the natural chain unless it says otherwise.
UniProt Q6VMQ6: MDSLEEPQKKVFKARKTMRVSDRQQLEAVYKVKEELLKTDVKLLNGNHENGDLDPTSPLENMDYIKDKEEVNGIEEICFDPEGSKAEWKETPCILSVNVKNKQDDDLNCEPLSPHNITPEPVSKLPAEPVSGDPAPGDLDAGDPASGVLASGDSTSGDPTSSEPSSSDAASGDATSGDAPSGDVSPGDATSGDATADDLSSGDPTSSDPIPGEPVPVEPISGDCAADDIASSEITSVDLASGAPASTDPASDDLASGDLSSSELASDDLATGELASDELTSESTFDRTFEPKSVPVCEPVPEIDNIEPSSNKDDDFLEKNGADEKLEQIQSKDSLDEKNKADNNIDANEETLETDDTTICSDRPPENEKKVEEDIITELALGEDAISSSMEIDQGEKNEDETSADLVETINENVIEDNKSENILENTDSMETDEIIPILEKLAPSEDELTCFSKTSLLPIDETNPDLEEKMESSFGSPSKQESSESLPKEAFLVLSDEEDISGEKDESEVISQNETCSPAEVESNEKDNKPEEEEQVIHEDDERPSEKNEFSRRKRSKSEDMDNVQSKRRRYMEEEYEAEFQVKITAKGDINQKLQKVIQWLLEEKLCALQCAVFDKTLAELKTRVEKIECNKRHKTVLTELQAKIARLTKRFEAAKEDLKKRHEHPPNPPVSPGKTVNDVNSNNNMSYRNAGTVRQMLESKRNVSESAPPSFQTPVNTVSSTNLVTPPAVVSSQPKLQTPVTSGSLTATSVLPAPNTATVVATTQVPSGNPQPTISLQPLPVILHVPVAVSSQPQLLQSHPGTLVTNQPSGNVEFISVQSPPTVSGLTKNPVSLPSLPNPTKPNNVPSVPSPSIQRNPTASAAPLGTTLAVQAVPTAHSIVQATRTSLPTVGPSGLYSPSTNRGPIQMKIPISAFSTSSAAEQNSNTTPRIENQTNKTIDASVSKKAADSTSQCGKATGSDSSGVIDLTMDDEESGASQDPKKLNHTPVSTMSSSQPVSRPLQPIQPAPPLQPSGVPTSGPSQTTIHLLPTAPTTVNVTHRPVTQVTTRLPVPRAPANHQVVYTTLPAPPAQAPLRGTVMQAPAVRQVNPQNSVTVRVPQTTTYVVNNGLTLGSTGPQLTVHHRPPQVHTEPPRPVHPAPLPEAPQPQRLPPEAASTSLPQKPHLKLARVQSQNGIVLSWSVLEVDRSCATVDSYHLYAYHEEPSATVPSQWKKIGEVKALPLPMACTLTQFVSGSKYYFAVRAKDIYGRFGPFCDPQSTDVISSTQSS
UniProt Q9Y679: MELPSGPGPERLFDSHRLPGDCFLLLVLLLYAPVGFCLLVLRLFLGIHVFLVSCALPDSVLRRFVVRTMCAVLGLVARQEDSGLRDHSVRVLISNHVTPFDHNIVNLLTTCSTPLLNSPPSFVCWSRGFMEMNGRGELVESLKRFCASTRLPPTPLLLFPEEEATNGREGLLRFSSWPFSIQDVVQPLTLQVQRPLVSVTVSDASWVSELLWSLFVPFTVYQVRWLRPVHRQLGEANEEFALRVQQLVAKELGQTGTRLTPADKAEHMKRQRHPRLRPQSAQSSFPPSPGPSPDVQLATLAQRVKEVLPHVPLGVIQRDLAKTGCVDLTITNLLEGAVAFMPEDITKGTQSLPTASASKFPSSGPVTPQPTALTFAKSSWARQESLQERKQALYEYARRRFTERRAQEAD
UniProt P17544: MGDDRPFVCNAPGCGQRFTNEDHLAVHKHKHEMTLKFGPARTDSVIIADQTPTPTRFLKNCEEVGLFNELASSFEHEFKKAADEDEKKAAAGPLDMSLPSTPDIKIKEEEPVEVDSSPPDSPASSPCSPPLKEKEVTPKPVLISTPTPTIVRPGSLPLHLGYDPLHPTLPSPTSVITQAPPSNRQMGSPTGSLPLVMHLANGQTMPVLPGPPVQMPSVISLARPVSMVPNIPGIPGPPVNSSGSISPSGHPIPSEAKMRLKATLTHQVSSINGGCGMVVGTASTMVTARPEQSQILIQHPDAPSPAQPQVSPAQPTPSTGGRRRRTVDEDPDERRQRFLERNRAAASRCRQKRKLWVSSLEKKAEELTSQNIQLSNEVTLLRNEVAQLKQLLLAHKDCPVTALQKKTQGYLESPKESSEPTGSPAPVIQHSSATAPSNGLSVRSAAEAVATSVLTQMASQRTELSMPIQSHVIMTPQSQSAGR
UniProt P56385: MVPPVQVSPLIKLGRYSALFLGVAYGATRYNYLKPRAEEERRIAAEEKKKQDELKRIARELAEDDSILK
UniProt Q5T9A4: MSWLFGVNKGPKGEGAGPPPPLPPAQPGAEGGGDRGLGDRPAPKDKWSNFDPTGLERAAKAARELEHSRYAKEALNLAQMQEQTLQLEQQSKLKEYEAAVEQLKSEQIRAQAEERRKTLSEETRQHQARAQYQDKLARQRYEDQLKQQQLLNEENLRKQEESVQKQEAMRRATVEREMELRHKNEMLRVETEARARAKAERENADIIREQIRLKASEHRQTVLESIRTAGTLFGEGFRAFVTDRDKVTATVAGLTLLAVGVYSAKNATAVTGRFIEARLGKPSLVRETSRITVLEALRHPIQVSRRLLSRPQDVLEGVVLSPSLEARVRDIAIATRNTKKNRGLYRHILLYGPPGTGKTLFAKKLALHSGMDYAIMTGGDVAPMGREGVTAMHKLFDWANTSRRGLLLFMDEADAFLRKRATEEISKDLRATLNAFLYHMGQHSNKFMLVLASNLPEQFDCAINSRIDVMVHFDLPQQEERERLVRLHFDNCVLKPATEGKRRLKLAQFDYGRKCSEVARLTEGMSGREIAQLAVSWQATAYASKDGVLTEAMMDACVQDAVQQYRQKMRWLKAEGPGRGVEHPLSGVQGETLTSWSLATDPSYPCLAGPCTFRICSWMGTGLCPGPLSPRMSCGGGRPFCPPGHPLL
UniProt Q6DD88: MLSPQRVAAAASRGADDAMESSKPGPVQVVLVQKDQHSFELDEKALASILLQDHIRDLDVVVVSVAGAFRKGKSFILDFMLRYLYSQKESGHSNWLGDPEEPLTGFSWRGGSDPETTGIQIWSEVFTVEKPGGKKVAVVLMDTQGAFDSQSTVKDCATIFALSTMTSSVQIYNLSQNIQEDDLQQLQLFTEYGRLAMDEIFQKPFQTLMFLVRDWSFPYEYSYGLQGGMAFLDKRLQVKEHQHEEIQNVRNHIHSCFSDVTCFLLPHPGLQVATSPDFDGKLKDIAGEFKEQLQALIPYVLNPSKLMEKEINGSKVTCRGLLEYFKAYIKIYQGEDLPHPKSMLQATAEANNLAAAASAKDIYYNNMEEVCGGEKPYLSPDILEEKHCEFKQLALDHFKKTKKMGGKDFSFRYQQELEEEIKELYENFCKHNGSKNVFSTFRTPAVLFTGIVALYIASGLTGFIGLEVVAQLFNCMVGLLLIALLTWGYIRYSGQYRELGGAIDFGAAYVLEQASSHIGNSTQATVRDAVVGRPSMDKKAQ
UniProt Q5TC12: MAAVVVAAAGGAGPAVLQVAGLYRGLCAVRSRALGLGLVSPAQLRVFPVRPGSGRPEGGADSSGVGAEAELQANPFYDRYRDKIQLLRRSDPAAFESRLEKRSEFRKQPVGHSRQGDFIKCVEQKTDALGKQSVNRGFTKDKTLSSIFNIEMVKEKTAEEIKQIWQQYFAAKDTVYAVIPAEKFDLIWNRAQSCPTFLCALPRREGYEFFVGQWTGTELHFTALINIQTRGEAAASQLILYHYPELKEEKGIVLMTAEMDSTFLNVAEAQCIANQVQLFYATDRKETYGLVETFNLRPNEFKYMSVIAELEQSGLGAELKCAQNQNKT
UniProt Q96BY7: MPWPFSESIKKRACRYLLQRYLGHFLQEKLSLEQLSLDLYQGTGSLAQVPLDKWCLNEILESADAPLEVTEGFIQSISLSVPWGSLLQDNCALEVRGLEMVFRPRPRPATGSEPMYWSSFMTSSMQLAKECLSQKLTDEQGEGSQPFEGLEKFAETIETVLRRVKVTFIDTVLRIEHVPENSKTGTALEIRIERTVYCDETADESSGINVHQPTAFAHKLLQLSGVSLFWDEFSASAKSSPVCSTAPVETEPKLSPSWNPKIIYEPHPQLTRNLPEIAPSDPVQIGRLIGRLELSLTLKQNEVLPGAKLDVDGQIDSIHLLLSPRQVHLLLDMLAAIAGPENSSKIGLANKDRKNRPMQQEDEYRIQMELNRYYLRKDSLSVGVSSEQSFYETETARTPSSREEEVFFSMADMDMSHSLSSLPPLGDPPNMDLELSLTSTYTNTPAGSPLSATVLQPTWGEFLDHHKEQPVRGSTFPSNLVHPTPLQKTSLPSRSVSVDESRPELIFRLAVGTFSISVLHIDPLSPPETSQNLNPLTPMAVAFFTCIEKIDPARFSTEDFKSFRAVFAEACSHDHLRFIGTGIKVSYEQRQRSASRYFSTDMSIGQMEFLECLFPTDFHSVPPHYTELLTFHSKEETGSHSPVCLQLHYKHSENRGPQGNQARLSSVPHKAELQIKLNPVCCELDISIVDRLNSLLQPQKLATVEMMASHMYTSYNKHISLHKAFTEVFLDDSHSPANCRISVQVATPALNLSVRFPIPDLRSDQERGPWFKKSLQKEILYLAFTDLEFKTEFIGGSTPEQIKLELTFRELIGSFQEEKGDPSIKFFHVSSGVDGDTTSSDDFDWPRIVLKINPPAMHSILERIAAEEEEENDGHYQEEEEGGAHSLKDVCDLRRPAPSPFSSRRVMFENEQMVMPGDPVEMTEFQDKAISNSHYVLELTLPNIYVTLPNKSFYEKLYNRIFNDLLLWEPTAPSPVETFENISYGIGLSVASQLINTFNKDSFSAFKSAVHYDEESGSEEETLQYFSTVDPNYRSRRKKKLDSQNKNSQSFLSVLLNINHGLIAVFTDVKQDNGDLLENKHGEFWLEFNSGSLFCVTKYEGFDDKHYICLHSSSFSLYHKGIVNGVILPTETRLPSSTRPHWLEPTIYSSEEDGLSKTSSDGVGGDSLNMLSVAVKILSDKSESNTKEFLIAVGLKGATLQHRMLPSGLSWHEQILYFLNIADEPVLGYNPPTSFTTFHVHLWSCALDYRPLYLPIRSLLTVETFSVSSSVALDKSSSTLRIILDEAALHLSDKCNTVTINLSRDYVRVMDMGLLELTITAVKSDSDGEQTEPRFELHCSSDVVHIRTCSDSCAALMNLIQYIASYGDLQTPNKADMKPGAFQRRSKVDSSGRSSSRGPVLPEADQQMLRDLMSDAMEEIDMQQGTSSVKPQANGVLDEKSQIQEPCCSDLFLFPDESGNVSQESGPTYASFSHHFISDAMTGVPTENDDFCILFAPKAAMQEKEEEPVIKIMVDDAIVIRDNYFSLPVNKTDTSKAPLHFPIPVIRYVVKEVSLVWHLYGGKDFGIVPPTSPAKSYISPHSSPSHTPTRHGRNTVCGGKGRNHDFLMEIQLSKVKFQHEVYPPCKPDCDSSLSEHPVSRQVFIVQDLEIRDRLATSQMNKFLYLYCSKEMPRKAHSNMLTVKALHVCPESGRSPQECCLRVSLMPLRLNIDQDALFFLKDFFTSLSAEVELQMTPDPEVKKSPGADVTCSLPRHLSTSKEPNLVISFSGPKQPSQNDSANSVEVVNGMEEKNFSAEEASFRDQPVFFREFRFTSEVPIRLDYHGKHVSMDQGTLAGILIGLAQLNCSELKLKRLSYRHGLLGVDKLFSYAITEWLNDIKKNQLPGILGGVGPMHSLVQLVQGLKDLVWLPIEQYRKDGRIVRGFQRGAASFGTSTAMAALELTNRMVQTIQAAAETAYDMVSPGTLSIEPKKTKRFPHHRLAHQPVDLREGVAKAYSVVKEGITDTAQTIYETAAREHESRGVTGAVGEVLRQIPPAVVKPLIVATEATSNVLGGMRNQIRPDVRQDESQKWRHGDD

[1] = compound: CCCS(=O)(=O)Nc1ccc(F)c(C(=O)c2c[nH]c3ncc(Cl)cc23)c1F
Procedure, shortened: as §1

barasertib = compound: CCN(CCCOc1ccc2c(Nc3cc(CC(=O)Nc4cccc(F)c4)[nH]n3)ncnc2c1)CCOP(=O)(O)O [barasertib]
Procedure, shortened: as §1

[2] = compound: CC[C@@H]1C(=O)N(C)c2cnc(Nc3ccc(C(=O)NC4CCN(C)CC4)cc3OC)nc2N1C1CCCC1
Procedure, shortened: as §1

volasertib = compound: CC[C@@H]1C(=O)N(C)c2cnc(Nc3ccc(C(=O)N[C@H]4CC[C@H](N5CCN(CC6CC6)CC5)CC4)cc3OC)nc2N1C(C)C [volasertib]
Procedure, shortened: as §1

[3] = compound: CCn1c(C(=O)N(C2CC2)C2CC2)cc2c3c(ncn3C)c(Nc3cc(C)n(C)n3)nc21
Procedure, shortened: as §1

[4] = compound: CCn1cc(-c2ccnc3[nH]c(-c4cccc(CN(C)C)c4)cc23)c(-c2ccc(NC(=O)N(C)C)cc2)n1
Procedure, shortened: as §1

[5] = compound: CN1CCC(CNc2ccc3ncc(-c4cccc(OC(F)(F)F)c4)n3n2)CC1
Procedure, shortened: as §1

saracatinib = compound: CN1CCN(CCOc2cc(OC3CCOCC3)c3c(Nc4c(Cl)ccc5c4OCO5)ncnc3c2)CC1 [saracatinib]
Procedure, shortened: as §1

sotrastaurin = compound: CN1CCN(c2nc(C3=C(c4c[nH]c5ccccc45)C(=O)NC3=O)c3ccccc3n2)CC1 [sotrastaurin]
Procedure, shortened: as §1

alvocidib = compound: CN1CC[C@H](c2c(O)cc(O)c3c(=O)cc(-c4ccccc4Cl)oc23)[C@H](O)C1 [alvocidib]
Procedure, shortened: as §1

Tubastatin A = compound: CN1CCc2c(c3ccccc3n2Cc2ccc(C(=O)NO)cc2)C1 [Tubastatin A]
Procedure, shortened: as §1

[6] = compound: CNC(=O)C1=CC=CC=C1NC2=NC(=NC=C2Cl)NC3=C(C=C(C=C3)N4CCOCC4)OC
Procedure, shortened: as §1

defactinib = compound: CNC(=O)c1ccc(Nc2ncc(C(F)(F)F)c(NCc3nccnc3N(C)S(C)(=O)=O)n2)cc1 [defactinib]
Procedure, shortened: as §1

[7] = compound: CNc1nc(-c2ccc3c(N)n[nH]c3c2)cc(N2C[C@@H](C(=O)NC3CCCCC3)CC[C@H]2C)n1
Procedure, shortened: as §1

encorafenib = compound: COC(=O)N[C@@H](C)CNc1nccc(-c2cn(C(C)C)nc2-c2cc(Cl)cc(NS(C)(=O)=O)c2F)n1 [encorafenib]
Procedure, shortened: as §1

[8] = compound: COC(=O)[C@H](CCSC)NC(=O)C1=C(C=C(C=C1)NC[C@H](CS)N)C2=CC=CC=C2
Procedure, shortened: as §1

alisertib = compound: COc1cc(Nc2ncc3c(n2)-c2ccc(Cl)cc2C(c2c(F)cccc2OC)=NC3)ccc1C(=O)O [alisertib]
Procedure, shortened: as §1

[9] = compound: COc1cc2nc(-c3cc(F)ccc3O)nc(N[C@@H]3CNC[C@H]3C(C)(C)O)c2cc1OC
Procedure, shortened: as §1

gefitinib = compound: COc1cc2ncnc(Nc3ccc(F)c(Cl)c3)c2cc1OCCCN1CCOCC1 [gefitinib]
Procedure, shortened: as §1

Target	log2 fold change (vemurafenib)	log2 fold change [1]	log2 fold change (barasertib)	log2 fold change [2]	log2 fold change (volasertib)	log2 fold change [3]	log2 fold change [4]	log2 fold change [5]	log2 fold change (saracatinib)	log2 fold change (sotrastaurin)	log2 fold change (alvocidib)	log2 fold change (Tubastatin A)	log2 fold change [6]	log2 fold change (defactinib)	log2 fold change [7]	log2 fold change (encorafenib)	log2 fold change [8]	log2 fold change (alisertib)	log2 fold change [9]	log2 fold change (gefitinib)
ATF7IP isoform 4 (UniProt Q6VMQ6)	inactive: -0.045	inactive: 0.051	inactive: -0.042	inactive: 0.033	inactive: -0.018	inactive: -0.021	inactive: 0.086	inactive: -0.037	inactive: 0.029	inactive: 0.027	inactive: -0.013	inactive: 0.04	inactive: -0.01	inactive: -0.007	inactive: 0.041	inactive: -0.01	inactive: 0.042	inactive: -0.03	inactive: 0.019	inactive: -0.027
AUP1 (UniProt Q9Y679)	inactive: 0.116	inactive: 0.034	inactive: 0.008	inactive: -0.014	inactive: -0.023	inactive: -0.02	inactive: -0.035	inactive: -0.086	inactive: 0.069	inactive: -0.015	inactive: 0.033	inactive: 0.215	inactive: -0.003	inactive: -0.011	inactive: 0	inactive: 0.032	inactive: -0.109	inactive: 0.017	inactive: -0.001	inactive: -0.033
ATF7 isoform 6 (UniProt P17544)	inactive: 0.06	inactive: -0.071	inactive: -0.132	inactive: 0.019	inactive: 0.005	inactive: 0.047	inactive: 0.181	inactive: -0.1	inactive: 0.072	inactive: 0.018	inactive: 0.06	inactive: 0.047	inactive: -0.049	inactive: 0.034	inactive: 0.171	inactive: 0.01	inactive: 0.029	inactive: 0.023	inactive: -0.059	inactive: -0.073
ATP5ME (UniProt P56385)	inactive: 0.031	inactive: -0.011	inactive: 0.007	inactive: 0.021	inactive: 0.007	inactive: -0.002	inactive: -0.044	inactive: 0.033	inactive: -0.009	inactive: 0	inactive: 0.004	inactive: 0.065	inactive: 0.015	inactive: 0.032	inactive: 0.012	inactive: 0.018	inactive: 0.006	inactive: 0.042	inactive: 0.013	inactive: -0.037
ATAD3B (UniProt Q5T9A4)	inactive: -0.022	inactive: 0.016	inactive: -0.007	inactive: -0.004	inactive: -0.019	inactive: 0.014	active: 0.383	inactive: -0.205	inactive: -0.018	inactive: -0.013	inactive: 0.124	inactive: 0.047	inactive: -0.029	inactive: 0.046	inactive: 0.039	inactive: 0.016	inactive: -0.128	inactive: 0.006	inactive: -0.008	inactive: -0.001
ATL3 (UniProt Q6DD88)	inactive: 0.046	inactive: -0.022	inactive: 0.022	inactive: 0.014	inactive: -0.041	inactive: -0.004	inactive: 0.055	inactive: -0.044	inactive: -0.044	inactive: 0.008	inactive: 0.016	inactive: 0.042	inactive: -0.007	inactive: 0.011	inactive: -0.046	inactive: 0.001	inactive: -0.021	inactive: -0.03	inactive: 0.184	inactive: -0.039
ATPAF1 (UniProt Q5TC12)	inactive: -0.034	inactive: 0.009	inactive: -0.018	inactive: 0.036	inactive: -0.016	inactive: -0.003	inactive: 0.113	inactive: -0.083	inactive: 0.028	inactive: 0.001	inactive: 0.062	inactive: 0	inactive: -0.009	inactive: -0.008	inactive: -0.02	inactive: 0.029	inactive: -0.053	inactive: -0.056	inactive: 0.013	inactive: 0.007
ATG2B (UniProt Q96BY7)	inactive: 0.043	inactive: 0.015	inactive: 0.007	inactive: 0.023	inactive: -0.013	inactive: 0.028	inactive: -0.016	inactive: -0.096	inactive: 0.003	inactive: 0.045	inactive: -0.009	inactive: -0.017	inactive: 0	inactive: -0.018	inactive: -0.004	inactive: 0.035	inactive: -0.047	inactive: -0.008	inactive: 0.002	inactive: -0.035
